Laboratory results taken from PubChem BioAssay AID1671190 (National Center for Advancing Translational Sciences (NCATS), 2021).
The whole screen tested about 580,000 compounds, of which about 6,100 (1.1%) were called active. This list was built around the results that the source calls inconclusive (neither active nor inactive); the mix of calls is not that of the screen. The call rests on the fitted dose curve; in most records, active means well fitted inhibition curve with a large enough effect; inconclusive means small, poorly fitted or top-dose-only effect, or another doubt; inactive means no such curve, though single readings can be large or run the other way. Potencies of inconclusive entries are doubtful fits and often do not repeat.
Potency means the concentration at half of the fitted maximal effect.

Amino acid sequences for entries named in this document (tags omitted). A change or cut given only in a name is not applied to a line headed by its entry.
UniProt P18054: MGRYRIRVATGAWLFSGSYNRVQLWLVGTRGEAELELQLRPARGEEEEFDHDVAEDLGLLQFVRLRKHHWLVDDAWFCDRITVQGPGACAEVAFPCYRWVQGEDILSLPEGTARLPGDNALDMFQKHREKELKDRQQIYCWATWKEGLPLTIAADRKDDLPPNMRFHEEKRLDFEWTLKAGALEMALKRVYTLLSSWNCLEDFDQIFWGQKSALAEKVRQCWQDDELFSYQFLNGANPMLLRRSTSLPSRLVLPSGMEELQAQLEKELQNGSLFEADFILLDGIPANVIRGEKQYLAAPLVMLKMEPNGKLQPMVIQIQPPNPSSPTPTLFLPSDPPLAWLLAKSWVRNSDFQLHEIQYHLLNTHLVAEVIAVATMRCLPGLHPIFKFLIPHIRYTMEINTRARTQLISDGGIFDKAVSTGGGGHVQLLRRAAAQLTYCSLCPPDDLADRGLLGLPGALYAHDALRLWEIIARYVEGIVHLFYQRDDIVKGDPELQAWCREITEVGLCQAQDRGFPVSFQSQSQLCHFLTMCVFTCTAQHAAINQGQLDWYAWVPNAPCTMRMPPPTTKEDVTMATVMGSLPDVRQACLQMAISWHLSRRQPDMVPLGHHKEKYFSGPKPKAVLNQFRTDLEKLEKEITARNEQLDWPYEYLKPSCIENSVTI

Each compound was assayed against Polyunsaturated fatty acid lipoxygenase ALOX12 (Homo sapiens) (UniProt P18054) (assay: Primary qHTS assay for inhibitors of human arachidonate 12S-lipoxygenase (ALOX12): Round 2). Conditions: purified 12hLO, xylenol orange hydroperoxide absorbance; series mostly up to 108 µM.
Method in brief: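 Purified human 12hLO (150 nM final) in 25 mM Hepes, 0.01% Triton X-100, pH 7.0 was preincubated 15 min at room temperature with compound. Then 40 uM arachidonic acid was added, 30 min. Hydroperoxide was read by Fe-XO absorbance ratio 573/405 nm.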
In the case of `CCCOc1ccc(C2C(C(=O)c3cc4ccccc4o3)=C(O)C(=O)N2c2cc(C)on2)cc1` (stereo not drawn), the Potency was inconclusive: 44.7 µM [inhibitor, partial curve, poor fit]. For `COc1cc(/C=C2\C(=N)N3N=C(S(C)(=O)=O)SC3=NC2=O)ccc1OCCOc1ccccc1C`, the Potency was inconclusive: 39.8 µM [inhibitor, partial curve, poor fit]. For `COc1cc(/C=C2\C(=N)N3N=C(S(C)(=O)=O)SC3=NC2=O)ccc1OC(=O)c1cccs1`, the Potency was inconclusive: 44.7 µM [inhibitor, partial curve, poor fit].
